Data set [1] deals with GST-GR WT (human) (UniProt Q13148). The data set is described as follows: EMSA (agarose). Conditions: no cross-linking, complex not stable in gel; EMSA: 20 mM PIPES-NaOH pH 6.8, 150 mM NaCl, 0.8 mM MgCl2, 10% glycerol, 0.1 mg/ml BSA, 0.1 mg/ml poly-dI-dC, 25 C, gel 0.5x TBE pH 6.8; recombinant protein; protein details: GST; label: 5' Cy3, 3' Alexa Fluor 647. (Mobility shift assays separate free from complexed probe on a gel.)

Protein sequences, listed by entry. Tags and fused reporters are not part of them. Lines headed by an entry give the natural chain unless they say otherwise; changes in a name come on top.
UniProt Q13148: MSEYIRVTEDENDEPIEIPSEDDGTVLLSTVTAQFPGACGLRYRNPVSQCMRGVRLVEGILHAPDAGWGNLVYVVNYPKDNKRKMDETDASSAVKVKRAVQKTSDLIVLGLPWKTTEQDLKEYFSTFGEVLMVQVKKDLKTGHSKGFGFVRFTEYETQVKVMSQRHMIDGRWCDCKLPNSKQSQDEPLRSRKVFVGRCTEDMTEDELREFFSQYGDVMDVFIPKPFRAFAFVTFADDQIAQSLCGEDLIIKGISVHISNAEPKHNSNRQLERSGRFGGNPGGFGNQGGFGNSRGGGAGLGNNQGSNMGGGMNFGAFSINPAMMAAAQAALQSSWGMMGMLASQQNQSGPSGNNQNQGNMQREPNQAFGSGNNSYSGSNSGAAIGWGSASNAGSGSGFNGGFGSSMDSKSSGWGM
UniProt P08515, whole entry: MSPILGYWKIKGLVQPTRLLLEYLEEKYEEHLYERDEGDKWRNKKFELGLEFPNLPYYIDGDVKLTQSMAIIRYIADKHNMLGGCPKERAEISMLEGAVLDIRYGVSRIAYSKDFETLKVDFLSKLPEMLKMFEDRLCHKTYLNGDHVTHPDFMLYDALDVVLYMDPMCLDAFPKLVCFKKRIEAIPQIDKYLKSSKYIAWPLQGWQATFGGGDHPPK

Another data set concerns the target GST (UniProt P08515). Nature of the data set: EMSA (agarose). Conditions: GST-only control, same for CaMKIIa G4; EMSA: 20 mM PIPES-NaOH pH 6.8, 150 mM NaCl, 0.8 mM MgCl2, 10% glycerol, 0.1 mg/ml BSA, 0.1 mg/ml poly-dI-dC, 25 C, gel 0.5x TBE pH 6.8; recombinant protein; label: 5' Cy3, 3' Alexa Fluor 647.
Data set [2] has as its target GST-GR WT (human) (UniProt Q13148). Nature of the data set: UV cross-linking, SDS-PAGE. Particulars: 1-4 pmol protein; UV cross-linking: EMSA buffer without poly-dI-dC; recombinant protein; protein details: GST; label: 5' Cy3, 3' Alexa Fluor 647.
For data set [3] the target is unchanged. The data set is described as follows: SPR. Particulars: 50 nM protein; 3' DNA dA16 tail on RNA; SPR: 20 mM PIPES pH 6.8, 12 mM KCl, 0.8 mM MgCl2, 150 mM NaCl, 0.05% Tween-20, 25 C; recombinant protein; protein details: GST.
The target is the same in data set [4]. Nature of the data set: CD. Particulars: 1 uM each, no change of 265 nm positive peak; recombinant protein; protein details: GST.

The exact form of at least one protein or probe is not confirmed. For some assays here: Negatives hold for the conditions tested. For some assays here: At least one verdict rests on a figure or table, not on a statement of the authors.

We go through five sequences from PMC10097714.

With GGGGAAAAGGGAGGGAUGGG [Cy3-PSD-Ax647], the binding result was “no binding” in the data set with GST-GR WT (human) [1], “no binding” in the data set with GST and “binds” with GST-GR WT (human) [2]. Turning to “GGGGAAAAGGGAGGGAUGGGAAAAAAAAAAAAAAAA [PSD-95 G4 dA16]”, the binding result with GST-GR WT (human) [3] was “binds”.

Regarding UGGGGGGGGCGGGUGGGA [Cy3-CaMKII-Ax647], the binding result with GST-GR WT (human) [1] was “no binding”; in the data set with GST-GR WT (human) [2] it was “binds”. Take UGGGGGGGGCGGGUGGGAUGGGA [CaMKIIa G4]: the binding result with GST-GR WT (human) [4] was “binds”. On to “UGGGGGGGGCGGGUGGGAUGGGAAAAAAAAAAAAAAAAA [CaMKIIa G4 dA16]”, for which the binding result with GST-GR WT (human) [3] is “binds”.
